# Measured values published in article PMC6925144, “A prospective compound screening contest identified broader inhibitors for Sirtuin 1” (Scientific Reports, 2019).
# Chains of the proteins cited; added tags and fusions are not shown. Residues count along the entry.
# UniProt Q96EB6, 2-747 limits assumed: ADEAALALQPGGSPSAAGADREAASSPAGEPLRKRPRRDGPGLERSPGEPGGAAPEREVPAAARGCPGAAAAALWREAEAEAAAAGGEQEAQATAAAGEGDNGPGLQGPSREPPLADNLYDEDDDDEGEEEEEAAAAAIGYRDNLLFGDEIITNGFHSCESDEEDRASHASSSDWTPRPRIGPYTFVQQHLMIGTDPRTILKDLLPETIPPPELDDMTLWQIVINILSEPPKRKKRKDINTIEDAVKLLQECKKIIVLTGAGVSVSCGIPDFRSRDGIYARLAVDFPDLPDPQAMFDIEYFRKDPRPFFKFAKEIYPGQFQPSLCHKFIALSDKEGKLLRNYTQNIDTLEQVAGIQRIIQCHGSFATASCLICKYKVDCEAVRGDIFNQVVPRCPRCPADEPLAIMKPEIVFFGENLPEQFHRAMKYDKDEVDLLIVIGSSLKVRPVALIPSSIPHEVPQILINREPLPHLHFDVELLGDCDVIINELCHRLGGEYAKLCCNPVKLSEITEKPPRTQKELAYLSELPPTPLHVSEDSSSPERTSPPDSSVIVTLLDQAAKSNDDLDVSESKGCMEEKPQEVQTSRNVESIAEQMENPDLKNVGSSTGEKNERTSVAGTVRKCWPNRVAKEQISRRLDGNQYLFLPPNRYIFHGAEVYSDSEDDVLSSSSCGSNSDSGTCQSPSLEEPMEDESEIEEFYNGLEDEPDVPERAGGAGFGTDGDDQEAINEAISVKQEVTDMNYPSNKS
# Whole data set: some 3,200 compounds, median “TSA(with NAD+) / Primary screening (TSA) / delta Tm (K)” near -0.04, cut for the highest 2% near 0.37. The list shows a part of the results.
# Target: NAD-dependent deacetylase Sirtuin 1 (human, UniProt Q96EB6)
# Test: primary screen, delta tm
# Parameters: single well (n = 1, as 'the same TSA')
# Settings: 10 µM
row,SMILES,TSA(with NAD+) / Primary screening (TSA) / delta Tm (K)
1,COc1cc(CN(C)C(=O)COc2ccc3ccc(=O)oc3c2)ccc1OCc1ccccc1,0.17
2,CCc1ccc(CN(C)C(=O)c2cc(C)nc3ccccc23)cc1,0.16
3,Nc1nc(-c2ccc[nH]2)cs1,-0.14
4,COC(=O)c1c(N2C(=O)C=CC2=O)sc2c1CCCC2,-0.06
5,COc1ccc(S(=O)(=O)N2CCc3ccccc32)cc1C(=O)Nc1cccc(S(=O)(=O)NCc2ccco2)c1,0.25
6,Cc1sc2nc(CN3CCCC3)nc(N3CCC(C(N)=O)CC3)c2c1C,0.12
7,O=C1NC(=S)NC(=O)C1=Cc1c2oc(-c3ccccc3)cc(-c3ccccc3)c-2c2ccccc12,-0.03
8,CCN1CCN(C(=O)CCNC(=O)/C=C/c2ccc(OC)cc2)CC1,-0.05
9,O=C(O)c1ccc(NC(=O)C2CC2c2ccco2)cc1 (stereo not drawn),-0.13
10,CCc1nnc(N2CCC(n3cnc(C(N)=O)c3N)CC2)c(C#N)c1CC,-0.06
11,Cn1cc(S(=O)(=O)N2CCN(C(=O)CSCc3nc4ccccc4[nH]3)CC2)cc1C(N)=O,-0.03
12,Nc1ccn([C@@H]2O[C@H](CO)[C@@H](O)[C@@H]2O)c(=O)n1,0.09
13,O=C(O)c1ccc2[nH]c(=O)[nH]c2c1,-0.26
14,Cn1cc(CCC(=O)NCC(=O)O)c2ccccc21,-0.16
15,CCOC(=O)c1c(NC(=O)COC(=O)C23CC4CC(CC(Cl)(C4)C2)C3)sc(C(=O)N(CC)CC)c1C,-0.18
16,CCn1cc(C2CS(=O)CCN2c2ncnc3c2oc2ccccc23)cn1 (stereo not drawn),-0.19
17,CCC(NCc1cccc2cn[nH]c12)c1ccc2c(c1)OCCO2 (stereo not drawn),-0.23
18,COc1ccc(C(NC(=O)C(C)NC(=O)C23CC4CC(CC(C4)C2)C3)c2ccccc2)cc1 (stereo not drawn),-0.12
19,C/C=C/CCN,-0.12
20,CC(C)C(NC(N)=O)C(=O)Nc1ccc(CCO)cc1 (stereo not drawn),0.03
21,C#CCn1cnc2c(N)ncnc21,0.06
22,CC(OC(=O)c1ccc2c(c1)S(=O)(=O)c1ccccc1C2=O)C(=O)Nc1ncnc2[nH]cnc12 (stereo not drawn),0.06
23,C#CCNC(=O)Cc1c(C)nc2c(c1C)c(=O)[nH]n2C,-0.09
24,O=C(CCCc1cccs1)NCc1nc2ccccc2[nH]1,-0.24

row,SMILES,TSA(with NAD+) / Primary screening (TSA) / delta Tm (K)
1,Cc1ccc(-c2nnc(S)n2C)cc1,-0.05
2,COc1ccc2[nH]cc(C3=CCN(C(=O)c4cc(C)no4)CC3)c2c1,-0.05
3,Cc1ccc(C2CC(c3ccc4c(c3)OCO4)=NN2S(C)(=O)=O)cc1 (stereo not drawn),-0.11
4,Cc1nc(S)sc1CC(=O)NC1CCCCC1C (stereo not drawn),-0.01
5,CN(CC1OCCc2ccccc21)C(=O)c1cccc(-n2ccnn2)c1 (stereo not drawn),-0.01
6,NCCSCC(=O)O,0.03
7,Cc1noc(-c2cccc(NC(=O)c3ccccc3-c3ncc(-c4ccccc4)o3)c2)n1,-0.06
8,COCC(C)Nc1ncnc2ccsc12 (stereo not drawn),-0.03
9,Cc1cc(NC(=O)CSc2nnc(-c3c[nH]c4ccccc34)n2Cc2ccco2)no1,0.03
10,COc1ccccc1CNC(=O)/C(=C/c1ccccc1)c1ccccc1,-0.09
11,O=C(Nc1ccc2nc[nH]c(=O)c2c1)c1ccn(-c2ccccc2)n1,0.12
12,O=C(CC(F)(F)F)Nc1cccc(F)c1,-0.08
13,CNc1cc(C)nc2c(-c3ccccc3)c(C(F)(F)F)nn12,-0.12
14,CCOC(=O)c1ccccc1NC(=O)COc1ccc(C(N)=O)cc1,-0.22
15,COc1ccc2c(C=C3C(=O)N(C)C(=O)N(C)C3=O)cccc2c1,0.16
16,Cc1c(NC(=O)c2cnc3ccccc3n2)c(=O)n(-c2ccccc2)n1C,-0.03
17,CCc1cc2c(N3CCC(C(N)=O)CC3)nc(C(C)C)nc2s1,0.01
18,CCOc1ccc2[nH]c(SCC(=O)N3CCCC(C(N)=O)C3)nc2c1 (stereo not drawn),-0.11
19,OC(CCc1ccccc1)CN1CCN(c2cncc3ccccc23)CC1 (stereo not drawn),0.06
20,Cc1cc(=O)c2c(C)nn(-c3cccc(Cl)c3)c2[nH]1,0.03
21,Cc1cc(C(=O)COC(=O)C23CC4CC(CC(O)(C4)C2)C3)c(C)n1-c1ccc2c(c1)OCO2,-0.02
22,COc1cc(CN(C)C(=O)c2ccc(CS(C)(=O)=O)cc2)ccc1OCc1ccccc1,-0.12
23,O=S(=O)(NC1CCCNC1)c1ccccc1Br (stereo not drawn),-0.09
24,CO/N=C(/C)c1ccc2[nH]c(=O)[nH]c2c1,0.07

# In a second layout: results already given
row | SMILES | TSA(with NAD+) / Primary screening (TSA) / delta Tm (K)
24 | O=C(CCCc1cccs1)NCc1nc2ccccc2[nH]1 | -0.24
1 | Cc1ccc(-c2nnc(S)n2C)cc1 | -0.05
2 | COc1ccc2[nH]cc(C3=CCN(C(=O)c4cc(C)no4)CC3)c2c1 | -0.05
3 | Cc1ccc(C2CC(c3ccc4c(c3)OCO4)=NN2S(C)(=O)=O)cc1 (stereo not drawn) | -0.11
4 | Cc1nc(S)sc1CC(=O)NC1CCCCC1C (stereo not drawn) | -0.01
5 | CN(CC1OCCc2ccccc21)C(=O)c1cccc(-n2ccnn2)c1 (stereo not drawn) | -0.01
6 | NCCSCC(=O)O | 0.03
7 | Cc1noc(-c2cccc(NC(=O)c3ccccc3-c3ncc(-c4ccccc4)o3)c2)n1 | -0.06
8 | COCC(C)Nc1ncnc2ccsc12 (stereo not drawn) | -0.03
9 | Cc1cc(NC(=O)CSc2nnc(-c3c[nH]c4ccccc34)n2Cc2ccco2)no1 | 0.03
10 | COc1ccccc1CNC(=O)/C(=C/c1ccccc1)c1ccccc1 | -0.09
11 | O=C(Nc1ccc2nc[nH]c(=O)c2c1)c1ccn(-c2ccccc2)n1 | 0.12
12 | O=C(CC(F)(F)F)Nc1cccc(F)c1 | -0.08
13 | CNc1cc(C)nc2c(-c3ccccc3)c(C(F)(F)F)nn12 | -0.12
14 | CCOC(=O)c1ccccc1NC(=O)COc1ccc(C(N)=O)cc1 | -0.22
15 | COc1ccc2c(C=C3C(=O)N(C)C(=O)N(C)C3=O)cccc2c1 | 0.16
16 | Cc1c(NC(=O)c2cnc3ccccc3n2)c(=O)n(-c2ccccc2)n1C | -0.03
17 | CCc1cc2c(N3CCC(C(N)=O)CC3)nc(C(C)C)nc2s1 | 0.01
18 | CCOc1ccc2[nH]c(SCC(=O)N3CCCC(C(N)=O)C3)nc2c1 (stereo not drawn) | -0.11
19 | OC(CCc1ccccc1)CN1CCN(c2cncc3ccccc23)CC1 (stereo not drawn) | 0.06
20 | Cc1cc(=O)c2c(C)nn(-c3cccc(Cl)c3)c2[nH]1 | 0.03
21 | Cc1cc(C(=O)COC(=O)C23CC4CC(CC(O)(C4)C2)C3)c(C)n1-c1ccc2c(c1)OCO2 | -0.02
22 | COc1cc(CN(C)C(=O)c2ccc(CS(C)(=O)=O)cc2)ccc1OCc1ccccc1 | -0.12
23 | O=S(=O)(NC1CCCNC1)c1ccccc1Br (stereo not drawn) | -0.09
24 | CO/N=C(/C)c1ccc2[nH]c(=O)[nH]c2c1 | 0.07

# The list goes on:

row,SMILES,TSA(with NAD+) / Primary screening (TSA) / delta Tm (K)
1,COc1ccc(CCNC(=O)COC(=O)CCc2ccc(S(=O)(=O)N3CCCCC3)cc2)cc1OC,-0.03
2,C/C(=N/Nc1cc(C(=O)O)ccc1Cl)c1ccc2ccccc2c1,0.16
3,NCCOCCCO,-0.13
4,Cc1ccc(N(C)S(=O)(=O)c2cccc(C(=O)Nc3ccc(C(N)=O)cc3)c2)cc1,0.46
5,O=C(N1CCc2ccccc2CC1)N1CC2CCCN2Cc2ccccc21 (stereo not drawn),-0.13
6,Cc1cc(/C=N/NC(C)(C)C)c(C)n1-c1cc(S(=O)(=O)N2CCOCC2)ccc1N1CCCC1,-0.03
7,O=C(c1ccc(O)cc1)C1CCN(c2ncnc3c2oc2ccccc23)CC1,-0.01
8,CC(=O)N1CCCc2cc(S(=O)(=O)Nc3cccc4c3CCCC4)ccc21,-0.08
9,CCCCOC(=O)c1ccc(NC(=O)COC(=O)CNC(=O)C23CC4CC(CC(C4)C2)C3)cc1,0.32
10,Cc1ccccc1NC(=O)COC(=O)c1ccccc1SCC(=O)NC12CC3CC(CC(C3)C1)C2,0.17
11,CCOC(=O)Nc1cccc(C(=O)NCc2ccc3c(c2)OCO3)c1,-0.12
12,CC(N)CF (stereo not drawn),-0.03
13,Cc1ccc(-c2nnc(S)n2CCC(=O)N2CCN(Cc3nc(-c4cccs4)no3)CC2)cc1,0.16
14,O=C(Nc1cccc(S(=O)(=O)NCc2ccco2)c1)c1cn(-c2ccccc2)nc1-c1ccccc1,0.21
15,Cc1ccc(N(CC(=O)NC23CC4CC(CC(C4)C2)C3)S(=O)(=O)c2ccc3c(c2)OCCO3)cc1,-0.11
16,COc1ccc(OC)c(CN(CC(=O)Nc2ccc(C(N)=O)cc2)C2CC2)c1,0.06
17,N#CCn1c(COC(=O)CO/N=C2\c3ccccc3C3C=CC=CC23)nc2ccccc2c1=O (stereo not drawn),0.06
18,O=C(Nc1ccc(Cl)cn1)C1CCN(c2nc(C3CC3)nc3sc4c(c23)CCCC4)CC1,-0.13
19,O=C(OCC(=O)C12CC3CC(CC(C3)C1)C2)[C@H](Cc1ccccc1)N1C(=O)c2ccccc2C1=O,-0.11
20,COS(=O)(=O)OC,-0.04
21,COc1ccc(SC(C)C(N)=O)cc1 (stereo not drawn),0.03
22,NC(=O)C1CCN(C(=O)c2c[nH]c3cc(Br)c(Br)cc23)CC1,0.06
23,COc1cc(CN(C)C(=O)c2ccc(-c3ccc(C(C)=O)cc3)o2)ccc1OCc1ccccc1,-0.18
24,O=C(O)CN1CCN(Cc2ccccc2)C2(CCCCC2)C1,-0.02

row,SMILES,TSA(with NAD+) / Primary screening (TSA) / delta Tm (K)
1,CC1CC(C)n2nccc2N1C(=O)Cc1csc(-c2ccc(C(F)(F)F)cc2)n1 (stereo not drawn),-0.12
2,CN1CCN(c2ncnc3ccsc23)CC1,-0.13
3,Cc1cc(CCNc2ccc3nnnn3n2)c(C)n1-c1ccccc1,0.26
4,CC1CCCC(C)N1NC(=O)CCCN1C(=O)c2ccccc2C1=O (stereo not drawn),-0.33
5,O=C(Cc1c[nH]c2ccccc12)NCC1CCCN(Cc2cccs2)C1 (stereo not drawn),-0.09
6,NC(=O)C1CCN(C(=O)c2cc3cc(Br)ccc3[nH]2)C1 (stereo not drawn),-0.01
7,CC(OC(=O)c1cccc(S(=O)(=O)NCc2ccco2)c1)C(=O)c1ccc2c(c1)CCC2 (stereo not drawn),-0.01
8,COC[C@H](C)N,-0.01
9,COC(=O)c1ccc2c(=O)n(CCc3ccccc3)c(SCC(=O)N(C3CCCCC3)C3CCS(=O)(=O)C3)nc2c1 (stereo not drawn),0.16
10,O=C(CCc1c[nH]c2ccccc12)NNC(=O)CCN1CCN(c2ccccc2)CC1,0.06
11,O=C(/C=C/c1ccco1)C1=C(O)C(=O)N(CCCN2CCOCC2)C1c1ccco1 (stereo not drawn),-0.08
12,Cc1ccc(CNC(=O)C2CSCN2)c(O)c1 (stereo not drawn),-0.05
13,COc1ccc(C2C(C(=O)/C=C/c3ccco3)=C(O)C(=O)N2CCCN2CCOCC2)cc1OC (stereo not drawn),0.07
14,Cc1csc(=O)n1CCC(=O)N1CCC(CC(N)=O)CC1,0.06
15,NC(=O)c1cccc(NC(=O)c2cc3c(s2)-c2ccccc2CC3)c1,0.88
16,N#Cc1cc(Br)ccc1NCC1(CCO)CCOC1 (stereo not drawn),-0.13
17,CCNc1ncnc2c1cnn2-c1ccccc1,0.25
18,O=c1cc(NCC2(c3ccccc3)CCC2)nc2ccccn12,-0.11
19,O=C(O)Cn1c(S)nc2ccccc2c1=O,-0.15
20,COc1ccc(C2C(C(=O)c3ccc(C)cc3)=C(O)C(=O)N2CCCN2CCOCC2)cc1OC (stereo not drawn),0.02
21,O=C(CSc1nnc(-c2cccnc2)o1)N(Cc1ccccc1)c1nc2c(s1)CCCC2,-0.08
